These are yes or no findings as the source states them, for the method shown. In cells and extracts the contact can be indirect. Some results given as binding are weak or reduced against the parent protein; the word gives no strength. For some of these results: Tags and fused reporters may be left off the sequences shown.
T1: RIG-I (construct of Figures S4 and S21 not shown) (UniProt O95786)
T1 sequence: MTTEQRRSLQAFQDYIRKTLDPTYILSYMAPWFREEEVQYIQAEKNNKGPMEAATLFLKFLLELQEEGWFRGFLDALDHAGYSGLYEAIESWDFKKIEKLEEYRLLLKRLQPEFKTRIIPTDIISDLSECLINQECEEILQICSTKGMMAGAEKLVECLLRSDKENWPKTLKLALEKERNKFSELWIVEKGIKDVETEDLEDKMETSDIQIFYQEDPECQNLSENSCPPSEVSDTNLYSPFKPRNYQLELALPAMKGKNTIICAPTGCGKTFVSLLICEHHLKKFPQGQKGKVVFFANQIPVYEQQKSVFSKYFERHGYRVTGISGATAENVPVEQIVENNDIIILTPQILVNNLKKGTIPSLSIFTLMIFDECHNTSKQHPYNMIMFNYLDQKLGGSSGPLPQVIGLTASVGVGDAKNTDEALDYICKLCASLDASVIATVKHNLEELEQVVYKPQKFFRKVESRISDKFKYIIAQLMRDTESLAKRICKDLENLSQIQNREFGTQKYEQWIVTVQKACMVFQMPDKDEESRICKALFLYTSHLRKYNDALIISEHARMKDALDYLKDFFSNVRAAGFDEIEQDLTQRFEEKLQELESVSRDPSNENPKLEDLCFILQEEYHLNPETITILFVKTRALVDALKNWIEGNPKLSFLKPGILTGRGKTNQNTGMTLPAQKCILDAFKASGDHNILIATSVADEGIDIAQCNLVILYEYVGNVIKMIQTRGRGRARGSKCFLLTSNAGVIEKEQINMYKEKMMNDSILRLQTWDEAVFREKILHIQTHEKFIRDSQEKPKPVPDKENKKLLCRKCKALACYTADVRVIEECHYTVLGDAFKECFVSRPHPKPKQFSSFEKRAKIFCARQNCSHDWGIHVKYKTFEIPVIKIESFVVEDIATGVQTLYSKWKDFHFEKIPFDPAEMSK

T2: MDA5 (construct of Figures S4 and S21 not shown) (UniProt Q9BYX4)
T2 sequence: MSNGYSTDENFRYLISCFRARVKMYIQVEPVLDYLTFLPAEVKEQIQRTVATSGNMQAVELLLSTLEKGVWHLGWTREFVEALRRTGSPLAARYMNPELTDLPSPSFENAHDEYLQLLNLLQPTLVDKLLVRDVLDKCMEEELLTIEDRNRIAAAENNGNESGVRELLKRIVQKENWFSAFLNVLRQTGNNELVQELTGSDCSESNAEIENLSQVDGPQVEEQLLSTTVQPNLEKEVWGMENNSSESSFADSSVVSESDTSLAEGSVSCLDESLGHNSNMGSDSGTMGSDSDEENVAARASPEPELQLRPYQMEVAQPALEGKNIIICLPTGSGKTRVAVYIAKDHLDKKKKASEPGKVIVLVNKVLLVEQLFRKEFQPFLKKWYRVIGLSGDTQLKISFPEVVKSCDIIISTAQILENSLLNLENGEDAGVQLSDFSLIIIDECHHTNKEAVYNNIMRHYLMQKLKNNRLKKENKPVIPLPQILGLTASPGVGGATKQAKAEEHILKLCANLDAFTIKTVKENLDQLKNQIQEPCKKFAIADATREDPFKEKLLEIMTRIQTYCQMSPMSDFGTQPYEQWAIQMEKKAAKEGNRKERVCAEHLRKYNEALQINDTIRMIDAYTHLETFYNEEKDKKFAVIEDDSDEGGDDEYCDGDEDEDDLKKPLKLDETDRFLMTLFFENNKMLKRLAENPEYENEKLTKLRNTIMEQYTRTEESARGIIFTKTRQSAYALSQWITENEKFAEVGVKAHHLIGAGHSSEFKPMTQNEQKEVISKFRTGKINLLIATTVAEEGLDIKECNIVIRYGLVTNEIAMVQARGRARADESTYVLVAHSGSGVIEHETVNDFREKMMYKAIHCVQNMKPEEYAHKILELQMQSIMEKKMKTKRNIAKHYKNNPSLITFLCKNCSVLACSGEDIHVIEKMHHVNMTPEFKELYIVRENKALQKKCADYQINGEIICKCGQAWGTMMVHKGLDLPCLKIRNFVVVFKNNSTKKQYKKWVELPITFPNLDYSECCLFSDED

T3: Apoptosis inhibitor 5 (API5), endogenous (human (endogenous in A549 and HEK293T)) (UniProt Q9BZZ5)
T3 sequence: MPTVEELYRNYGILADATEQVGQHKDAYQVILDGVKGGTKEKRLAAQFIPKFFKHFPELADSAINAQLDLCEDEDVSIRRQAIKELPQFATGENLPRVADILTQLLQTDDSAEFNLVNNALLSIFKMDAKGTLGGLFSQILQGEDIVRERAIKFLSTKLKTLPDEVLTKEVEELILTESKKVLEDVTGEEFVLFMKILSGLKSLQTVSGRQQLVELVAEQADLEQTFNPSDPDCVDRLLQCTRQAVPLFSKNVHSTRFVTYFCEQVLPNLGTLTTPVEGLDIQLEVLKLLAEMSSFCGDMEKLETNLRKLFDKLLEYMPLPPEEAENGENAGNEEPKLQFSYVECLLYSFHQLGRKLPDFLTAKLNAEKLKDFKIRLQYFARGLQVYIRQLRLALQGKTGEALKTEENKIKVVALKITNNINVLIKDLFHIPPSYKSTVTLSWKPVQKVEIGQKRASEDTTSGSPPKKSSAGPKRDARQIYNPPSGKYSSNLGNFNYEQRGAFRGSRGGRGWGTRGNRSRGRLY

B1: API5^WT, exogenous (tag not told for these experiments) (protein, UniProt Q9BZZ5 1-524)
chain: MPTVEELYRNYGILADATEQVGQHKDAYQVILDGVKGGTKEKRLAAQFIPKFFKHFPELADSAINAQLDLCEDEDVSIRRQAIKELPQFATGENLPRVADILTQLLQTDDSAEFNLVNNALLSIFKMDAKGTLGGLFSQILQGEDIVRERAIKFLSTKLKTLPDEVLTKEVEELILTESKKVLEDVTGEEFVLFMKILSGLKSLQTVSGRQQLVELVAEQADLEQTFNPSDPDCVDRLLQCTRQAVPLFSKNVHSTRFVTYFCEQVLPNLGTLTTPVEGLDIQLEVLKLLAEMSSFCGDMEKLETNLRKLFDKLLEYMPLPPEEAENGENAGNEEPKLQFSYVECLLYSFHQLGRKLPDFLTAKLNAEKLKDFKIRLQYFARGLQVYIRQLRLALQGKTGEALKTEENKIKVVALKITNNINVLIKDLFHIPPSYKSTVTLSWKPVQKVEIGQKRASEDTTSGSPPKKSSAGPKRDARQIYNPPSGKYSSNLGNFNYEQRGAFRGSRGGRGWGTRGNRSRGRLY
B2: Melanoma differentiation-associated protein-5 (MDA5), endogenous (protein, UniProt Q9BYX4 1-1025)
chain: MSNGYSTDENFRYLISCFRARVKMYIQVEPVLDYLTFLPAEVKEQIQRTVATSGNMQAVELLLSTLEKGVWHLGWTREFVEALRRTGSPLAARYMNPELTDLPSPSFENAHDEYLQLLNLLQPTLVDKLLVRDVLDKCMEEELLTIEDRNRIAAAENNGNESGVRELLKRIVQKENWFSAFLNVLRQTGNNELVQELTGSDCSESNAEIENLSQVDGPQVEEQLLSTTVQPNLEKEVWGMENNSSESSFADSSVVSESDTSLAEGSVSCLDESLGHNSNMGSDSGTMGSDSDEENVAARASPEPELQLRPYQMEVAQPALEGKNIIICLPTGSGKTRVAVYIAKDHLDKKKKASEPGKVIVLVNKVLLVEQLFRKEFQPFLKKWYRVIGLSGDTQLKISFPEVVKSCDIIISTAQILENSLLNLENGEDAGVQLSDFSLIIIDECHHTNKEAVYNNIMRHYLMQKLKNNRLKKENKPVIPLPQILGLTASPGVGGATKQAKAEEHILKLCANLDAFTIKTVKENLDQLKNQIQEPCKKFAIADATREDPFKEKLLEIMTRIQTYCQMSPMSDFGTQPYEQWAIQMEKKAAKEGNRKERVCAEHLRKYNEALQINDTIRMIDAYTHLETFYNEEKDKKFAVIEDDSDEGGDDEYCDGDEDEDDLKKPLKLDETDRFLMTLFFENNKMLKRLAENPEYENEKLTKLRNTIMEQYTRTEESARGIIFTKTRQSAYALSQWITENEKFAEVGVKAHHLIGAGHSSEFKPMTQNEQKEVISKFRTGKINLLIATTVAEEGLDIKECNIVIRYGLVTNEIAMVQARGRARADESTYVLVAHSGSGVIEHETVNDFREKMMYKAIHCVQNMKPEEYAHKILELQMQSIMEKKMKTKRNIAKHYKNNPSLITFLCKNCSVLACSGEDIHVIEKMHHVNMTPEFKELYIVRENKALQKKCADYQINGEIICKCGQAWGTMMVHKGLDLPCLKIRNFVVVFKNNSTKKQYKKWVELPITFPNLDYSECCLFSDED

Legend:
Test in all cases: co-IP
[1] = biological target: T1, RIG-I (construct of Figures S4 and S21 not shown)
[2] = biological target: T2, MDA5 (construct of Figures S4 and S21 not shown)
[3] = biological target: p62, exogenous (tag not told for these experiments) (human (amplified from HEK293T cells)) (UniProt Q13501)
[4] = biological target: T3, Apoptosis inhibitor 5 (API5), endogenous (human (endogenous in A549 and HEK293T))

| Binder | binding [1] | binding [2] | binding [3] | binding [4] |
| --- | --- | --- | --- | --- |
| B1 | binds | binds | binds |  |
| B2 |  |  |  | binds |

— PMC12499447
